From US5411707A, “Vacuum extractor incorporating a condenser column” (priority 1994, dated 1995)

Key:
[1] = Method detection limits for volatile organic analytes in soil (Table 7); details: 4 ppb, average of three nonconsecutive-day studies, values marked ^c: MDL exceed concentration studies
[2] = Recovery of volatile organic analytes from spiked soil (Table 5); details: 50 ppb, condenser -10° C.; for Recovery, Soil/Oil Water: 5 g soil + 1 g cod liver oil + water slurry; for Recovery, Soil/Oil: 5 g soil + 1 g cod liver oil, spiked using 0.2 ml water; for Recovery, Soil/Water: 5 g soil + 5 ml water slurry, 10 min
[3] = Recovery of volatile organic analytes from spiked water and cod liver oil/water emulsion (Table 3); details: 10 min, condenser -10° C., ± one sigma; for Recovery, H2O/Oil 20 mL: 1 g cod liver oil and 20 ml water emulsion; for Recovery, H2O/Oil 5 mL: 1 gram cod liver oil and 5 ml water emulsion; for Recovery, Water 5 mL: 5 mL water, relative to internal standard d3-vinylchloride; for Recovery, Water 20 mL: 20 mL water, relative to d3-vinylchloride
[4] = Method detection limits for volatile organic analytes in water (Table 6); details: 5 mL water, 4 ppb; for Method Detection Limit, External Standard Method: average of three nonconsecutive-day studies; for Method Detection Limit, Internal Standard Method: d3-vinylchloride internal standard
[5] = 1 gram cod liver oil, composite of 25, 50 and 200 ppb spikes, 10 min, condenser -10° C.

Compound	MDL, External Standard Method [1] [ppb]	MDL, Internal Standard Method [1] [ppb]	Recovery, Soil/Oil Water [2] [%]	Recovery, Soil/Oil [2] [%]	Recovery, Soil/Water [2] [%]	Recovery, H2O/Oil 20 mL [3] [%]	Recovery, H2O/Oil 5 mL [3] [%]	Recovery, Water 5 mL [3] [%]	Recovery, Water 20 mL [3] [%]	Oil Recovery	Method Detection Limit, External Standard Method [4] [PPb]	Method Detection Limit, Internal Standard Method [4] [PPb]	Oil Recovery [5] [%]
CCc1ccccc1 [Ethyl Benzene]	4.1	2.8	56 ± 5	83 ± 23	70 ± 23	45 ± 9	40 ± 10	90 ± 12	80 ± 18	31 ± 2	2.4	1.8	
S=C=S [Carbon Disulfide]	3.2	2.3	53 ± 11	92 ± 19	50 ± 20	95 ± 29	115 ± 20	110 ± 8	109 ± 30		2.5	1.9	92 ± 14
C=Cc1ccccc1 [Styrene]	2.5	1.3	32 ± 4	39 ± 16	66 ± 19	35 ± 7	34 ± 9	89 ± 9	85 ± 21		2.0	1.8	21 ± 4
Cc1ccccc1C [Ortho Xylene]	4.1	3.5	48 ± 8	56 ± 16	66 ± 20	42 ± 10	34 ± 9	86 ± 10	83 ± 19	45 ± 19	2.4	1.9	
CCCl [Chloroethane]	7.5	6.2	58 ± 22	70 ± 14	48 ± 20	76 ± 20	102 ± 16	88 ± 10	81 ± 17		6.1	5.6	72 ± 21
ClC(Cl)Br [Bromodichloromethane]	2.3	1.4	50 ± 4	69 ± 25	49 ± 12	58 ± 17	66 ± 12	92 ± 11	91 ± 17		2.0	2.1	41 ± 5
C=C(Cl)Cl [1,1-Dichloroethene]	3.8	3.1	65 ± 9	81 ± 12	53 ± 20	70 ± 16	103 ± 17	84 ± 6	74 ± 15		3.4	2.8	71 ± 24
ClC(Cl)(Cl)Cl [Carbon Tetrachloride]	1.7	1.5			88 ± 59	64 ± 12	72 ± 17	91 ± 14	90 ± 18		1.5	1.9	54 ± 5
Cc1ccc(C)cc1 [Para Xylene]	3.9	2.9	58 ± 10	75 ± 18	60 ± 19	43 ± 12	38 ± 10	86 ± 8	82 ± 19		2.3	1.8	25 ± 3
Cl/C=C\Cl [Cis-1,2-Dichloroethene]	2.7	2.0	69 ± 11	126 ± 13	66 ± 14	74 ± 12	86 ± 11	85 ± 8	82 ± 18	71 ± 24	2.4	2.4	
CC(Cl)(Cl)Cl [1,1,1-Trichloroethane]	2.4	1.7			137 ± 23	73 ± 9	81 ± 14	96 ± 13	90 ± 15		1.6	1.9	88 ± 40
ClCC(Cl)Cl [1,1,2-Trichloroethane]	2.8	1.5	47 ± 6	56 ± 17	66 ± 20	81 ± 22	51 ± 8	87 ± 14	83 ± 20		2.7	2.4	29 ± 7
ClC(Br)Br [Dibromochloromethane]	2.9	1.5	47 ± 4	65 ± 22	74 ± 18	50 ± 10	47 ± 9	90 ± 12	87 ± 20		2.1	1.9	25 ± 6
C=CCl [Vinyl Chloride]	7.1	6.3	79 ± 30	79 ± 23	60 ± 25	87 ± 27	118 ± 28	105 ± 9	98 ± 19		4.0	2.6	81 ± 12

Read-outs that look alike come from different tables or passages of the source.
